The list is a part of this screen's results and no random one: it gathers tests that were run many times, whatever their T/C, doses with no T/C, and many T/C values between a quarter and a half above the control. Other doses and runs of a compound stand elsewhere. T/C gives the treated animals as a percentage of the vehicle group. Some doses have a count of surviving animals in place of a T/C: the source holds a T/C of zero for them, seemingly a mark for toxic or unscored doses. Some survivor counts are full or nearly so, which does not show that the dose was tolerated: the source hardly ever lists a survival T/C far under the control, and the zero likely stands for such cases as well. Counts of survivors are from the toxicity check (mostly the fifth day) where no day follows; animals may have died later. Schedule codes are those of the source, taken here to give the interval after Q, in days (D) or hours (H), and the number of doses after X. Some doses were run more than once; their values stand side by side, smallest first. Where survival is the endpoint, this PubChem deposit counts one and a half times the control or more as active, and values a quarter to a half above the control carry no call in these data; other NCI protocols may use other cut-offs. Brackets with × stand for listed records that agree. Some T/C values are followed by the survivors on the day toxicity was checked, most often the fifth; without a count, all were alive then.

Experimental findings from PubChem BioAssay AID330 (DTP/NCI, 2004) are described below.

In the assay the test system is P388 leukemia ip, CD2F1 mice, survival T/C. In words: NCI In Vivo Anticancer Drug Screen. Data for tumor model P388 Leukemia (intraperitoneal) in CD2F1 (CDF1) mice. Particulars: T/C endpoint: median survival time, higher T/C = longer survival.
[1] abbreviates: dose: 400.0 mg/kg/injection, schedule: Q04DX003 (ip), vehicle: saline.
The mark [2] stands for this setting: dose: 100.0 mg/kg/injection, schedule: Q01DX009 (ip), vehicle: saline with Tween-80.
Setting [3] is: dose: 200.0 mg/kg/injection, schedule: Q01DX009 (ip), vehicle: saline with Tween-80.
Setting [4] is: dose: 200.0 mg/kg/injection, schedule: Q01DX009 (ip), vehicle: Klucel (hydroxypropylcellulose) (HPC).
Where [5] appears, read: dose: 100.0 mg/kg/injection, schedule: Q04DX003 (ip), vehicle: saline with Tween-80.
[6] abbreviates: dose: 400.0 mg/kg/injection, schedule: Q04DX003 (ip), vehicle: saline with Tween-80.
Where [7] appears, read: dose: 200.0 mg/kg/injection, schedule: Q01DX009 (ip), vehicle: saline.
Where [8] appears, read: dose: 200.0 mg/kg/injection, schedule: Q04DX003 (ip), vehicle: saline with Tween-80.
Setting [9] is: dose: 100.0 mg/kg/injection, schedule: Q01DX009 (ip), vehicle: saline.
Where [10] appears, read: dose: 12.5 mg/kg/injection, schedule: Q04DX003 (ip), vehicle: saline.
[11] abbreviates: dose: 50.0 mg/kg/injection, schedule: Q01DX009 (ip), vehicle: water.

Regarding `O=C(O)c1c(Cl)c(Cl)c(Cl)c(Cl)c1C(=O)Nc1ccc2cn[nH]c2c1`, the survivor count (dose: 200.0 mg/kg/injection, schedule: Q01DX009 (ip), vehicle: saline + alcohol) was 5 of 6.
For `Cc1c2ccncc2c(C)c2c1[nH]c1ccc(OCCN(C)C)cc12`, the survivor count by setting is: (dose: 100.0 mg/kg/injection, schedule: Q04DX002 (ip), vehicle: water) 0 of 6; (dose: 200.0 mg/kg/injection, schedule: Q04DX002 (ip), vehicle: water) 0 of 6.
With `c1ccc([C@H]2CN3CCSC3=N2)cc1`, where the note is “dose: 40.0 mg/kg/injection, schedule: Q01DX009 (ip), vehicle: saline”, the survivor count is given as 1 of 5.
Take `Cc1c(Cc2ccccc2)[n+](=O)c2ccccc2n1[O-]`: the survivor count (dose: 600.0 mg/kg/injection, schedule: Q04DX003 (ip), vehicle: saline with Tween-80) is 3 of 6 and the survivor count (dose: 800.0 mg/kg/injection, schedule: Q01DX005 (ip), vehicle: Klucel (hydroxypropylcellulose) (HPC)) was 2 of 6.
For `NCCC(=O)NCCSSCCNC(=O)CCN`, the survivor count under setting [1] is given as 3 of 6.
Turning to `CCCC(CCC)NCC(O)c1cc(-c2ccc(C(F)(F)F)cc2)nc(C(F)(F)F)c1` (configuration not stated), the survivor count is on record as 0 of 6 under setting [2] and 0 of 6 under setting [3].
In the case of `O=C(N1CCCCCC1)N1CC1`, the survivor count under setting [4] is 0 of 6 and the survivor count (dose: 400.0 mg/kg/injection, schedule: Q01DX009 (ip), vehicle: Klucel (hydroxypropylcellulose) (HPC)) is recorded as 0 of 6.
`CCCC(=O)OCC1OC(n2cnc3c(=S)nc(N)[nH]c32)C(OC(=O)CCC)C1OC(=O)CCC` (configuration not stated): the T/C (dose: 5.0 mg/kg/injection, schedule: Q04DX003 (ip), vehicle: saline with Tween-80) was 140 % of control; the T/C under setting [5] is 125 and 140 % of control. Further, the survivor count is recorded as 5 of 6 under setting [2] and 5 of 6 under setting [6].
Consider `COS(C)=O` (configuration not stated), for which the survivor count under setting [7] is listed as 1 of 6.
In the case of `Oc1c(CNCCCN2CCCC2)cc(Cl)c2cccnc12`, the survivor count under setting [7] is 1 of 6.
Turning to `CSc1nc(NC(C)C)nc(NC(C)C)n1`, the survivor count under setting [8] was 6 of 6.
As for `Cn1cnc([N+](=O)[O-])c1Sc1ccncn1`, the T/C is 125 % of control under setting [9] and 131 % of control under setting [7].
With `Nc1ncc(Cl)c2ccccc12`, the survivor count is recorded as 3 of 5 (dose: 100.0 mg/kg/injection, schedule: Q01DX005 (ip), vehicle: saline with Tween-80) and 0 of 5 (dose: 200.0 mg/kg/injection, schedule: Q01DX005 (ip), vehicle: saline with Tween-80).
For the compound `C[CH2][Sn]1([CH2]C)[O]C(=O)CC(=O)[O]1`, the T/C is, setting by setting: (dose: 6.25 mg/kg/injection, schedule: Q04DX003 (ip), vehicle: saline) 140 % of control; under setting [10], 127 % of control. Further, the survivor count by setting is: under setting [10], 3 of 6; (dose: 25.0 mg/kg/injection, schedule: Q04DX003 (ip), vehicle: saline) 0 of 6; (dose: 100.0 mg/kg/injection, schedule: Q04DX003 (ip), vehicle: saline) 0 of 6; (dose: 200.0 mg/kg/injection, schedule: Q04DX003 (ip), vehicle: saline) 0 of 6; under setting [1], 0 of 6.
`COc1cccc2c1C(=O)c1c(O)c3c(c(O)c1C2=O)CC(O)CC3OC1CC(N)C(O)C(C)O1` (configuration not stated): where the note is “dose: 1.56 mg/kg/injection, schedule: Q01DX009 (ip), vehicle: water”, the T/C is 144 % of control. The survivor count is given as 3 of 3 (dose: 12.5 mg/kg/injection, schedule: Q01DX009 (ip), vehicle: water) and 2 of 3 (dose: 25.0 mg/kg/injection, schedule: Q01DX009 (ip), vehicle: water).
As for `CSc1nc(SC)c2c(CNC(C)=O)cn(Cc3ccccc3)c2n1`, the survivor count is recorded as 6 of 6 (dose: 100.0 mg/kg/injection, schedule: Q01DX001 (ip), vehicle: saline with Tween-80) and 1 of 6 (dose: 400.0 mg/kg/injection, schedule: Q01DX001 (ip), vehicle: saline with Tween-80).
For the compound `CN=C(NC)NCCSCc1ccc2ccccc2n1`, the survivor count is, setting by setting: (dose: 100.0 mg/kg/injection, schedule: Q01DX005 (ip), vehicle: saline) 0 of 5; (dose: 200.0 mg/kg/injection, schedule: Q01DX005 (ip), vehicle: saline) 0 of 5.
`O=NNc1cnc(Br)cn1`: under setting [11], the T/C was 126 and 133 % of control.
As to `O=C1C2C(C(=O)N1c1ccc(OCc3ccccc3)cc1)C1c3ccccc3C2C2CCCCN21` (configuration not stated), the survivor count under setting [11] is on record as 1 of 6.
Regarding `COc1cc2cc3c4cc(OC)c(OC)cc4cc[n+]3c(C)c2cc1OC`, the T/C is, setting by setting: (dose: 25.0 mg/kg/injection, schedule: Q04DX003 (ip), vehicle: other) 134, 135, 140 % of control; (dose: 50.0 mg/kg/injection, schedule: Q04DX003 (ip), vehicle: other) 131 % of control; (dose: 100.0 mg/kg/injection, schedule: Q04DX003 (ip), vehicle: saline sonified) 137 % of control (3×); under setting [5], 133 % of control [5 of 6 alive]; (dose: 200.0 mg/kg/injection, schedule: Q04DX003 (ip), vehicle: saline sonified) 137 % of control (3×); under setting [8], 137 % of control. The T/C by setting is: under setting [6], 141 % of control; (dose: 800.0 mg/kg/injection, schedule: Q04DX003 (ip), vehicle: saline with Tween-80) 129 % of control. The survivor count runs as follows: (dose: 200.0 mg/kg/injection, schedule: Q01DX009 (ip), vehicle: other) 6 of 6; (dose: 400.0 mg/kg/injection, schedule: Q01DX009 (ip), vehicle: other) 3 of 6 and 5 of 6.
Consider `CCCCCCCCCCCCCC(C)N1CCCN=C1C` (configuration not stated), for which the survivor count is 0 of 6 (dose: 50.0 mg/kg/injection, schedule: Q01DX009 (ip), vehicle: Klucel (hydroxypropylcellulose) (HPC)); 0 of 6 (dose: 100.0 mg/kg/injection, schedule: Q01DX009 (ip), vehicle: Klucel (hydroxypropylcellulose) (HPC)); 0 of 6 under setting [4].
For the compound `CCn1cnc2sc3c(c2c1=O)CCCC3`, the survivor count (dose: 240.0 mg/kg/injection, schedule: Q01DX005 (ip), vehicle: saline with Tween-80) is reported as 3 of 6.
On to `CN1CCN(CCCN2c3ccccc3Sc3ccc(C(F)(F)F)cc32)CC1`, for which the survivor count under setting [2] was 3 of 6; the survivor count (dose: 150.0 mg/kg/injection, schedule: Q04DX003 (ip), vehicle: saline with Tween-80) is recorded as 3 of 6; the survivor count under setting [8] is recorded as 1 of 6; the survivor count under setting [6] is 0 of 6. Moreover, under setting [5], the T/C was 127 % of control.
As to `O=C(N/N=C/c1ccccc1[OH2+])c1ccncc1.O=S(=O)([O-])[O-].[Fe+2]`, the survivor count (dose: 400.0 mg/kg/injection, schedule: Q01DX001 (ip), vehicle: Klucel (hydroxypropylcellulose) (HPC)) is listed as 0 of 6.
`COc1cccc2c1C(=O)c1c(O)c3c(c(O)c1C2=O)CC(O)(C1(C)OCC(C)(C)CO1)CC3OC1CC(N)C(O)C(C)O1` (configuration not stated): the survivor count is given as 0 of 6 on day 9 (dose: 100.0 mg/kg/injection, schedule: Q04DX003 (ip), vehicle: water) and 0 of 6 on day 9 (dose: 200.0 mg/kg/injection, schedule: Q04DX003 (ip), vehicle: water).
For the compound `O=C1C(=O)N(c2ccccc2)C(=O)N1c1ccccc1`, the survivor count by setting is: (dose: 50.0 mg/kg/injection, schedule: Q01DX009 (ip), vehicle: saline with Tween-80) 6 of 6; under setting [3], 6 of 6; (dose: 400.0 mg/kg/injection, schedule: Q01DX009 (ip), vehicle: saline with Tween-80) 5 of 6.
On to `C[N+](C)(C)N`, for which, under setting [7], the survivor count is given as 0 of 6.
Turning to `O=C(Cc1nc2ccccc2[nH]c1=O)c1ccccc1`, the survivor count reads like this: (dose: 50.0 mg/kg/injection, schedule: Q01DX009 (ip), vehicle: saline) 6 of 6; under setting [9], 6 of 6; under setting [7], 6 of 6.
